Data published in the supplement of paper PMC12819154, “High-throughput peptide-centric local stability assay extends protein–ligand identification to membrane proteins, tissues and bacteria” (Nature Structural & Molecular Biology, 2025).
Some of the results follow. Most values lie at the level of the controls, where differences are scatter.

The chains behind the UniProt entries cited, without tags or fusion partners. Where a name states a change or a piece, a line headed by the entry shows the natural chain unless it says otherwise.
UniProt P40925: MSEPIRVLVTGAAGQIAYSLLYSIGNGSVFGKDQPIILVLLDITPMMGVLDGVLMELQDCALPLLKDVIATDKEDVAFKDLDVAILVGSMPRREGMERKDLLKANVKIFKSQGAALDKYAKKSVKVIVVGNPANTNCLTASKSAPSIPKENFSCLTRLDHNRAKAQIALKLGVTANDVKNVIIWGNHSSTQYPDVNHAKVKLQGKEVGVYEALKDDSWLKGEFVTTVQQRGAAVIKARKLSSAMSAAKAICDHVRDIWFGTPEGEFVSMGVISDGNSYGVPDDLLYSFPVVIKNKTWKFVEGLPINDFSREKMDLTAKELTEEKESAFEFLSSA
UniProt P43250, whole entry, looked up: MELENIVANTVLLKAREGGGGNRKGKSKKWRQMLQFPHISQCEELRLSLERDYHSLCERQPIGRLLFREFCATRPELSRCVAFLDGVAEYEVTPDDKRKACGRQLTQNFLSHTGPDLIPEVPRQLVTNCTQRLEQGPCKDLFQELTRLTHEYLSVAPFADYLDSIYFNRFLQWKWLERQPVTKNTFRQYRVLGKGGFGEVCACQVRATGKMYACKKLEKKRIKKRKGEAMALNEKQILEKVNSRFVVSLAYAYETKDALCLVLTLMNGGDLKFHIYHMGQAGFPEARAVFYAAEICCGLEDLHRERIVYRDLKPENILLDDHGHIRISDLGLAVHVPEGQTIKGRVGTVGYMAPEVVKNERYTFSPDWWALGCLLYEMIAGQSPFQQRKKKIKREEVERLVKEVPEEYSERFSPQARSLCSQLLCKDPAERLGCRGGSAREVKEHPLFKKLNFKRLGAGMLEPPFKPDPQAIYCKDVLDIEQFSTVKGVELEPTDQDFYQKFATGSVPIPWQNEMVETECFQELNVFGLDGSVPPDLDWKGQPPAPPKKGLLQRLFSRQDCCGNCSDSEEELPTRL
UniProt P42858, whole entry: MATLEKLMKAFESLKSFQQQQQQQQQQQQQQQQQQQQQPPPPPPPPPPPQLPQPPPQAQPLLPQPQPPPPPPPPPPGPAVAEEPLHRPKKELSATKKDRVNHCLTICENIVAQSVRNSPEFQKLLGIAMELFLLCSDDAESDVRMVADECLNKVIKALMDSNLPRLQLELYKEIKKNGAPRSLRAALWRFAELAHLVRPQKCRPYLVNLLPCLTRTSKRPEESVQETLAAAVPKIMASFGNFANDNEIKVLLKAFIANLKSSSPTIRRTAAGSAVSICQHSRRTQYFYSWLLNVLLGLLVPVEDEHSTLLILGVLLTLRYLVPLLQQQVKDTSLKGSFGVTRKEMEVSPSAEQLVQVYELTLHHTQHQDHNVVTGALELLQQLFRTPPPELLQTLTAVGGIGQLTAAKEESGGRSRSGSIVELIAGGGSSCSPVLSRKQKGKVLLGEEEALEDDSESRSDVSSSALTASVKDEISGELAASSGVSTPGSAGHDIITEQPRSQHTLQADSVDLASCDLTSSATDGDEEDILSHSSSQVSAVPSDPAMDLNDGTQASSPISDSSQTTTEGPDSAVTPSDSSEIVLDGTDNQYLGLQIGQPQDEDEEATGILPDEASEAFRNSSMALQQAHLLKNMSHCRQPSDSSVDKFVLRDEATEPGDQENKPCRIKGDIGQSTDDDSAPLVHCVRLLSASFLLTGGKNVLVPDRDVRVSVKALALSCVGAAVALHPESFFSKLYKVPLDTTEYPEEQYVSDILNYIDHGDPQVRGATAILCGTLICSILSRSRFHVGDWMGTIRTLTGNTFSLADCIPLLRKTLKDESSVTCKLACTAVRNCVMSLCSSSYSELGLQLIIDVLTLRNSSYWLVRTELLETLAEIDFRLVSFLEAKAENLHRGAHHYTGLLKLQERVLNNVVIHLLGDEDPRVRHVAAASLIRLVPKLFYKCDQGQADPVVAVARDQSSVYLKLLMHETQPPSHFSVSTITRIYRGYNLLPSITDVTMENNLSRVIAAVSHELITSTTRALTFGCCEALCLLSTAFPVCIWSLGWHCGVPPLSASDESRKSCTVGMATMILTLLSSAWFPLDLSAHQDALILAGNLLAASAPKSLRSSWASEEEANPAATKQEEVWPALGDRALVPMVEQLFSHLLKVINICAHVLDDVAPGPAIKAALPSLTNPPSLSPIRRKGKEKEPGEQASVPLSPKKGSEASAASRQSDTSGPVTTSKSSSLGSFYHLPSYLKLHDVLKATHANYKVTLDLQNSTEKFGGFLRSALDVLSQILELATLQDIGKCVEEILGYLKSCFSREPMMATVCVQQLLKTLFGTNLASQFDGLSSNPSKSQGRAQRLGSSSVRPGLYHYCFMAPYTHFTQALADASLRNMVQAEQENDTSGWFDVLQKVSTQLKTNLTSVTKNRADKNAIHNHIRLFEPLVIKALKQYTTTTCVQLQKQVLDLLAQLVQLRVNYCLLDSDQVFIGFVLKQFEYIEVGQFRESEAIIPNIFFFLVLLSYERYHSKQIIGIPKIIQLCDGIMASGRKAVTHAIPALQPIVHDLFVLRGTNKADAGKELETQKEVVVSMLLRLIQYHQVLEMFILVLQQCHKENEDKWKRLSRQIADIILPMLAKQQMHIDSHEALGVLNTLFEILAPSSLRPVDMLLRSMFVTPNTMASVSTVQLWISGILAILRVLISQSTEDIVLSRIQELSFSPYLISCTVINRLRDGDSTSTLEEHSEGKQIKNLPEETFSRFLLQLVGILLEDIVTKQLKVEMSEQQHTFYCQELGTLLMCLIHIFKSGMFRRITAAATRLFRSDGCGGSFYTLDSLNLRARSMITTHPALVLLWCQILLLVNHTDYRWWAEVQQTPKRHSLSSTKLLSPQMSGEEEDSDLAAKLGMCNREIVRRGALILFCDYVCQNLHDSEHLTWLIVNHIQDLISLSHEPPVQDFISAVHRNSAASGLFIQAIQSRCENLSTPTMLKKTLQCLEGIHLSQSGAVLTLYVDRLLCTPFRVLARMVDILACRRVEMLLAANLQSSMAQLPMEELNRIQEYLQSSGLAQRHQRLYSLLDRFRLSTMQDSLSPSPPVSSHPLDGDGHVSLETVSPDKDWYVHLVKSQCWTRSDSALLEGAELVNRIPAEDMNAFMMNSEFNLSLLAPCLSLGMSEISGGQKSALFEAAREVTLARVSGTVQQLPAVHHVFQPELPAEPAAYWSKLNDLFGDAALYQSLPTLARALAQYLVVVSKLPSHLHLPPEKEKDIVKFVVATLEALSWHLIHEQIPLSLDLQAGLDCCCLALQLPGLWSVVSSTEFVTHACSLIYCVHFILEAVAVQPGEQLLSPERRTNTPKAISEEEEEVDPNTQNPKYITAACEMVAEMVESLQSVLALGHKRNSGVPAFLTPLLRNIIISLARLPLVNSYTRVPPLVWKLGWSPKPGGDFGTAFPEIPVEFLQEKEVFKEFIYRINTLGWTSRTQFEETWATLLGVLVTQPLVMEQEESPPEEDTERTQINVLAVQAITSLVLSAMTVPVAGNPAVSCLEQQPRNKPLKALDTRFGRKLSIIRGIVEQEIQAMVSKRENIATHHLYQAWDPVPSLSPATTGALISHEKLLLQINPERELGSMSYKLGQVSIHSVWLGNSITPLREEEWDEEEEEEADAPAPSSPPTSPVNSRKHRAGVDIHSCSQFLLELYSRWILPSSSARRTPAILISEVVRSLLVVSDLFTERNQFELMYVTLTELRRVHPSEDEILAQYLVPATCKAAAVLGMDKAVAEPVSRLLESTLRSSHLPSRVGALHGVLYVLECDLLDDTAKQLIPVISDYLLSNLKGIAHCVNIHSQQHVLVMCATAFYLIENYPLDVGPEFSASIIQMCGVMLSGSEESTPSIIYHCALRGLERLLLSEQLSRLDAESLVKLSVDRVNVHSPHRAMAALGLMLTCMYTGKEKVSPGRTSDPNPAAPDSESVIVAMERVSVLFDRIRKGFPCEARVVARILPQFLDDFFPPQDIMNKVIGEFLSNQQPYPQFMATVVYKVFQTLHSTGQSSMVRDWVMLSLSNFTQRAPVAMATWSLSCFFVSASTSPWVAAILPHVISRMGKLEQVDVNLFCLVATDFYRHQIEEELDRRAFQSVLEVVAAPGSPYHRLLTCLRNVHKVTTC
UniProt P43361: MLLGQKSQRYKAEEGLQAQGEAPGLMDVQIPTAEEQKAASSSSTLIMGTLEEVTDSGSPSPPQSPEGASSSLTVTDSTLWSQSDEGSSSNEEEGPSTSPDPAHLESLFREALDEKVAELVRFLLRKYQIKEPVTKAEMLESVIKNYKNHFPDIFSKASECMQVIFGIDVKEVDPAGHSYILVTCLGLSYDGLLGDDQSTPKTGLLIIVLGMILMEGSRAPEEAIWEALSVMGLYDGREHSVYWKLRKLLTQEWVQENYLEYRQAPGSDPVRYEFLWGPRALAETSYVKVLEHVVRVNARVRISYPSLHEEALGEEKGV
UniProt P35711: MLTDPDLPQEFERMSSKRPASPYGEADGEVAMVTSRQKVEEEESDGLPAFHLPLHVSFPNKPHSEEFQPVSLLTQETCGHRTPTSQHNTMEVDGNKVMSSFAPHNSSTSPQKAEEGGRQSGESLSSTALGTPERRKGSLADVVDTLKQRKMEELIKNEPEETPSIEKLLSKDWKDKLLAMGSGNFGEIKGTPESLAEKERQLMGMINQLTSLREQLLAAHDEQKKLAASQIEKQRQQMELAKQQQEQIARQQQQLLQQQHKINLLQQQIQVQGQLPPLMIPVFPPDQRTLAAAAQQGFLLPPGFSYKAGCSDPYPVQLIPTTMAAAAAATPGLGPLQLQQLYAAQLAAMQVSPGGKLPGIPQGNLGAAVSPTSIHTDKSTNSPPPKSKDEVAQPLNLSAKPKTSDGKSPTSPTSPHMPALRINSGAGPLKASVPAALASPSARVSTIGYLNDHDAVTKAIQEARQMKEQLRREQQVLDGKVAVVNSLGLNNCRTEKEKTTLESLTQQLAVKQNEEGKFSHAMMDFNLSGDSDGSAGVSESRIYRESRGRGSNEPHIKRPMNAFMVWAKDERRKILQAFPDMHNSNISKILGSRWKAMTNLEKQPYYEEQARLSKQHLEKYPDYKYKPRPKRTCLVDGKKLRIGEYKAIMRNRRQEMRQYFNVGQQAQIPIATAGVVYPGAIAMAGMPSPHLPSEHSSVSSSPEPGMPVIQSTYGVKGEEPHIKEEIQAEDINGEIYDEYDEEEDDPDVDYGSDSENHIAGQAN
UniProt P45974: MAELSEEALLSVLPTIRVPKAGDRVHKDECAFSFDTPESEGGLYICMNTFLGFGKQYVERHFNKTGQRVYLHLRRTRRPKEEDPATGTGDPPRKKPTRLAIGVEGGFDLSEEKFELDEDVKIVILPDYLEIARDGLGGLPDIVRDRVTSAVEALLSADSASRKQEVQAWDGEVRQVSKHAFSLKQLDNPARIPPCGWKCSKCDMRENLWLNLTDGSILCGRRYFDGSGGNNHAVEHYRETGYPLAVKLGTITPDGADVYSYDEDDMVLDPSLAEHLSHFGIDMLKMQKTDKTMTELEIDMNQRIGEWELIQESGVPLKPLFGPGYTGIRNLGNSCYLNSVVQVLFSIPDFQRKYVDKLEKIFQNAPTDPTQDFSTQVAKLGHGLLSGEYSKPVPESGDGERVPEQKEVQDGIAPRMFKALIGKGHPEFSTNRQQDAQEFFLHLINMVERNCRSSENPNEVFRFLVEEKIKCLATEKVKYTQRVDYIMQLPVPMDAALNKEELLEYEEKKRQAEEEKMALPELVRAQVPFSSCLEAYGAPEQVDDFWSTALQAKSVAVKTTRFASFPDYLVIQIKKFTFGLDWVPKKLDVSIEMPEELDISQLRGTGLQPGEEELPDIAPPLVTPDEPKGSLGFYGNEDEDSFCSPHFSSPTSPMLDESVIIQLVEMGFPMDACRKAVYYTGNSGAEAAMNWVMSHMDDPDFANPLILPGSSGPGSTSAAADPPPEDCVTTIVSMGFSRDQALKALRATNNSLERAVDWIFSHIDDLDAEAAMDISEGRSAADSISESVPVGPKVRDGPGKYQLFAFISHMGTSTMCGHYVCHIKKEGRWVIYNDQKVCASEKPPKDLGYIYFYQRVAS

Compound: Cc1nc(Nc2ncc(C(=O)Nc3c(C)cccc3Cl)s2)cc(N2CCN(CCO)CC2)n1 [dasatinib]
Assay: log2 fold change of tryptic peptide abundance, ligand vs vehicle (limited proteolysis) (log2 ratio); higher = more trypsin-susceptible (destabilized)
Details: ligand concentration: 5 uM; sample: K562 cleared lysate

Row | Target | log2 fold change
1 | USP8 (peptide sequence: SYSSPDITQAIQEEEKR, peptide start residue: 716) (UniProt P40818) | 0.412
2 | MDH1 (peptide sequence: ENFSCLTR, peptide start residue: 150) (UniProt P40925) | 0.227
3 | GRK6 (peptide sequence: FHIYHMGQAGFPEAR, peptide start residue: 273) (UniProt P43250) | -0.244
4 | RPL3 (peptide sequence: VLTLRKSLLVQTK, peptide start residue: 344) (UniProt P39023) | 1.09
5 | HTT (peptide sequence: KAVTHAIPALQPIVHDLFVLR, peptide start residue: 1533) (UniProt P42858) | 0.53
6 | CTNNA1 (peptide sequence: NTSDVISAAKK, peptide start residue: 738) (UniProt P35221) | -0.405
7 | MAGEA8 (peptide sequence: AEMLESVIK, peptide start residue: 126) (UniProt P43361) | -0.317
8 | SOX5 (peptide sequence: VSTIGYLNDHDAVTK, peptide start residue: 444) (UniProt P35711) | 0.169
9 | USP5 (peptide sequence: VCASEKPPK, peptide start residue: 837) (UniProt P45974) | 0.826
